Percent effect of library compounds

The chains behind the UniProt entries cited, without tags or fusion partners. Residues count along the entry.
UniProt A4I591, 1-473: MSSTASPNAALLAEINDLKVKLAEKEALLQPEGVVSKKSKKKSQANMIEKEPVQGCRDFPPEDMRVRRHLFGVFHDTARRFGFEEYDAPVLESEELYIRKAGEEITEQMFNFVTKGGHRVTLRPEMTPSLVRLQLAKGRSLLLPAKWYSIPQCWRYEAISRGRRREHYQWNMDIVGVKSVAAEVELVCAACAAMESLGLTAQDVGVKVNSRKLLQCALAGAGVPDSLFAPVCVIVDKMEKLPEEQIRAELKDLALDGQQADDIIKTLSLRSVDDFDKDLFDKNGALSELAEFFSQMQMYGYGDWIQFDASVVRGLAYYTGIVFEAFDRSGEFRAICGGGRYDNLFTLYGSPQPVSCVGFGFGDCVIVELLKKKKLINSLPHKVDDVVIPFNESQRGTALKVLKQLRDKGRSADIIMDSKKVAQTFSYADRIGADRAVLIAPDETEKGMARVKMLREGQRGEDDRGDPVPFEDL
UniProt P9WPC5, whole entry: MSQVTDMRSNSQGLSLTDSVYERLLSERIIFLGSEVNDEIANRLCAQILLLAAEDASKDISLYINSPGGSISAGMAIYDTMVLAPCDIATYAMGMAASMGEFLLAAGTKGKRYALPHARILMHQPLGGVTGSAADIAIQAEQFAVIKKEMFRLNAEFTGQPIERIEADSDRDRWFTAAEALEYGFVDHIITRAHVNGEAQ
UniProt P9WPC3, whole entry partner: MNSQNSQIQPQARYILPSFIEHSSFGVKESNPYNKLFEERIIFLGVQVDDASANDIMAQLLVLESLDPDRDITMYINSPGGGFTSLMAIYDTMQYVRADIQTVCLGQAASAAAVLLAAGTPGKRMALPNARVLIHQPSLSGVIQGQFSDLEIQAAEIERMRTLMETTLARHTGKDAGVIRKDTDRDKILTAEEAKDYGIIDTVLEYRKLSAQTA
UniProt Q4DA54, 1-478: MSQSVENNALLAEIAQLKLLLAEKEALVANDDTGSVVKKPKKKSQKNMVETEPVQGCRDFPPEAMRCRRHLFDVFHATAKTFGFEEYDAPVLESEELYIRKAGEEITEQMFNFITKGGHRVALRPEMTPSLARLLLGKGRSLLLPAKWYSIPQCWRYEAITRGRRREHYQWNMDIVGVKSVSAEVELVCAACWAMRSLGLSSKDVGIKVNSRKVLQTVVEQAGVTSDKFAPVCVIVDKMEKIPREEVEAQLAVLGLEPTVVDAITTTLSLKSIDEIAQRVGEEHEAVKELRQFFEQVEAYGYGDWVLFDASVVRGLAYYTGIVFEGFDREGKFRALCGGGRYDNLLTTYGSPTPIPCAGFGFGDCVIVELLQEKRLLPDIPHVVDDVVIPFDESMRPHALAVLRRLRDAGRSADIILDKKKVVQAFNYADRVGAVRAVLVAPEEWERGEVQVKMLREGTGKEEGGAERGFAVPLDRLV

From ChEMBL document CHEMBL3988442, “University of Dundee, Small-Polar-MMV Screening Library” (2021).

Toxoplasma: 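Assay of Toxoplasma gondii numbers, read through their beta-galactosidase reporter with a colour substrate. Compounds at 10 µM. Higher reads as fewer parasites (inferred from which compounds were picked for retests). About 67,000 compounds were tested under these conditions; 0.38% (about 260) showed 50% or more at least once.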
T. brucei: 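Whole-parasite assay of Trypanosoma brucei over 72 hours; the read-out is not stated. Tested at 30 µM. The record gives no direction; compounds that gave an IC50 in retests scored well above the rest, so higher reads as stronger inhibition. Values scatter widely below zero; nearly all retest evidence comes from the higher of the two concentrations used. Of about 64,000 compounds tested this way, about 940 (1.5%) reached 50% or more in at least one test.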
LiHisRS: 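Histidine-tRNA ligase, Leishmania infantum (UniProt A4I591). Enzyme assay of histidyl-tRNA synthetase; the read-out is not stated. Concentration: 30 µM. Higher reads as stronger inhibition (inferred: compounds with an IC50 in retests scored well above the rest). The assay is labelled LdHisRS but filed under L. infantum. Size under these conditions: about 69,000 compounds, about 410 of them at 50% or above in at least one test.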
ClpP1P2: 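ClpP1P2, Mycobacterium tuberculosis (UniProt P9WPC5 and UniProt P9WPC3). Protease assay of ClpP1P2, read by the AMC dye that it sets free. Compounds at 50 µM. Higher reads as stronger inhibition, judged from the few compounds that gave an IC50. Most other retested compounds had strongly negative values. Size under these conditions: about 69,000 compounds, about 10 of them at 50% or above in at least one test.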
TcHisRS: 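Enzyme assay of histidyl-tRNA synthetase; the read-out is not stated. Target: Histidine-tRNA ligase, Trypanosoma cruzi CL Brener (UniProt Q4DA54). Concentration: 30 µM. Direction is inferred from retests: higher values go with stronger inhibition. Of about 69,000 compounds tested this way, about 31 (0.045%) reached 50% or more in at least one test.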

Results are given as percent effect.
The record does not define 0% and 100%; most values in the screen are far below 50% and negative numbers occur (in some assays of this library far below -100).
The compounds are a random part of those screened.
A dash means the value is not listed here; it may have been measured.

| compound | Toxoplasma | T. brucei | LiHisRS | ClpP1P2 | TcHisRS |
|---|---|---|---|---|---|
| `COC(=O)N1CC(C)=C(C)CN1C(=O)Nc1ccc(Cl)c(Cl)c1` | -13.3 | -8.145 | 8.247 | -4.689 | 5.78 |
| `O=S(=O)(NCCCn1cncn1)c1ccc2c(c1)OCCCO2` | 1.606 | -38.5 | 3.333 | -1.042 | 2.609 |
| `CCS(=O)(=O)N1CCC(CSc2ccccc2)C1` (stereo not shown) | 15.9 | -15.42 | 0 | -3.245 | 5.195 |
| `CN(Cc1ccco1)C(=O)CN1CCOC(Cn2cccn2)C1` (stereo not shown) | 13.99 | - | 8.547 | -12.53 | 4.274 |
| `COCCC(=O)N(CCC#N)c1ccc2c(c1)OCCO2` | 4.003 | -37.43 | 9.524 | 14.42 | 6.931 |
| `CN(C)CC(=O)N1CCC2(CC(=O)N(c3cccc(C#N)c3)C2)C1` (stereo not shown) | - | - | 11.76 | -2.95 | 6.011 |
| `CNC(=O)[C@@]12CCO[C@@H]1CCN(S(=O)(=O)c1cccc(F)c1)C2` | - | - | 13 | -7.8 | 7.143 |
| `O=C(NCC1CCCN(Cc2cccc3nonc23)C1)c1ccc[nH]1` (stereo not shown) | 7.547 | -46.2 | 17.58 | -6.382 | 9.036 |
| `CC1c2ccsc2CCN1Cc1cc2c(cc1O)OCO2` (stereo not shown) | 4.646 | -31.35 | 18.68 | -13.37 | 12.87 |
| `COCc1cc(NCCc2ccc(OC)cc2)n2nccc2n1` | -12.98 | -3.127 | 10.84 | -12.1 | 1.22 |
| `CN1CCCN(c2cnn(Cc3ccncc3)c(=O)c2)CC1` | -16.18 | -20.28 | 16 | -14.7 | 12.05 |
| `CCCc1ncc(CN(CCOC)Cc2cccs2)cn1` | 1.07 | -11.06 | 9.211 | -4.348 | 4.433 |
| `Cc1cnn(CC2CCCN2C(=O)c2cc(C)no2)c1` (stereo not shown) | -1.695 | -77.24 | -10.61 | -3.635 | 2.273 |
| `COC[C@]1(O)CCN(c2cc(OC)ncn2)CC1(C)C` | 25.88 | -80.27 | 1.667 | -3.894 | -0.8696 |
| `Cc1nc(CN2CCC(c3nc4cc(Cl)ccc4o3)CC2)oc1C` | 4.492 | -1.382 | 10.2 | 4.716 | 11.28 |
| `Cc1cc(C)n(C2CCN(c3ncnc4c3CCNCC4)C2)n1` (stereo not shown) | -20.33 | -12.27 | 5.495 | -6.114 | 1.031 |
| `CC(C)(C)NC(=O)NCc1cnn2ccccc12` | -13.66 | -21.75 | 14.53 | 1.11 | -1.111 |
| `[H][C@@]12CC[C@H](Oc3cccc(F)c3)[C@]1([H])CN(C(=O)c1cccnn1)C2` | -13.96 | -4.819 | - | - | - |
| `CCc1nc2n(n1)CC(NCC(=O)Nc1oc(C)c(C)c1C#N)CC2` (stereo not shown) | 3.733 | -16.49 | 3.636 | 23.65 | 1.17 |
| `CNC(=O)NC(=O)CCSc1ccccc1C` | 16.27 | -13.39 | 11.11 | 1.425 | 1.538 |
| `O=C(NC1CCCC1)C1CCN(c2cc(-n3ccnc3)ncn2)CC1` | -12.23 | -36.82 | -1.739 | -0.09428 | 3.093 |
| `CC(=O)N1N=C(c2ccccc2)OC1C(=O)NCCc1ccc(C)cc1` (stereo not shown) | 13.9 | 99.94 | 13.86 | 6.669 | 0 |
| `CS(=O)(=O)CCOCCNc1cncc(Br)c1` | 0.8269 | 6.181 | 53.25 | 3.313 | 2.463 |
| `CC(C)CC(C(=O)N(C)Cc1ncnn1C)N1CCCCC1=O` (stereo not shown) | -2.821 | -31.63 | 8.621 | -2.673 | 3.665 |
| `CCCn1cnc(S(=O)(=O)Nc2cccnc2-n2cccn2)c1` | -0.5394 | -47.01 | 29.58 | -9.911 | 0.6369 |
| `Cc1cccc(CN2CCc3ncnc(C4CC4)c3CC2)n1.O=C(O)C(F)(F)F` | -19.45 | -17.96 | - | - | - |
| `CC(C)NC(=O)c1ccc2nnc(C3CN(C)CCN3C)n2c1.O=C(O)C(F)(F)F.O=C(O)C(F)(F)F` (stereo not shown) | -7.101 | 2.982 | - | - | - |
| `Cc1cc(-c2ccc(C(C)N3CCOCC3)cc2)cnc1N` (stereo not shown) | -0.5945 | -21.6 | 9.211 | -9.475 | 4.433 |
| `Cc1c(C(=O)N(C)CC(F)(F)F)nnn1-c1ccccc1Cl` | -0.6472 | -89.59 | -9.859 | 14.28 | 8.28 |
| `O=C(O)C(F)(F)F.O=C(c1ccccn1)N1CCc2ncc(Cn3cccn3)n2CC1` | 11.43 | -7.142 | - | - | - |
| `CCN1CC(C(=O)NCc2nn(CC)c3ccccc23)CCC1=O` (stereo not shown) | -3.889 | -0.9026 | 26.32 | -6.951 | -2.793 |
| `Cc1ccc(CN2CCc3ncc(CNC(=O)C4CCC4)n3CC2)o1.O=C(O)C(F)(F)F` | 13.22 | -36.54 | - | - | - |
| `N#Cc1cccc(OCCN2CCCC(c3noc(C4CC4)n3)C2)c1` (stereo not shown) | -7.448 | -22.31 | 6.452 | -1.967 | 4.124 |
| `CCc1ncc(CNC2CC(=O)N(CCc3cccc(Cl)c3)C2)cn1` (stereo not shown) | 3.49 | -18.76 | 15.24 | -4.591 | 0 |
| `CCc1c(C(=O)N2CCC(CC(N)=O)CC2)cnn1C(C)(C)C` | 2.548 | - | 11.54 | -2.028 | -5.714 |
| `N#Cc1cccnc1OC1CCNCC1` | - | - | 20.78 | 1.828 | 3.636 |
| `CNC(=O)[C@@H](C1CCCCC1)N1CCC[C@H]1C(=O)N(C)CCN(C)C.Cl.Cl` | 6.152 | -20.01 | - | - | - |
| `Cc1cc2ccccc2n1CCC(=O)N1CCCC(O)(CN(C)C)CC1` (stereo not shown) | 5.358 | -60.64 | 3.922 | 6.924 | 8.642 |
| `COC(=O)c1ccc(N2CCN(C(=O)c3ccncc3)C(C)C2)cc1` (stereo not shown) | - | 41.83 | -25.84 | 5.442 | 0.7519 |
| `Cc1nc(C(=O)N2CCCC2c2cnn(C)c2)ccc1C#N` (stereo not shown) | -4.819 | -7.033 | 7.826 | 17.61 | -3.38 |
| `Cc1cccc(CNCc2c(C)nn(C)c2N2CCOCC2)n1` | 3.722 | -63.6 | 19.23 | 0.2922 | -0.8264 |
| `O=C(C(CNCc1ccco1)c1ccccc1)N1CCOCC1` (stereo not shown) | 6.049 | -31.26 | 15.29 | -13.77 | 3.139 |
| `O=C(O)C(F)(F)F.[H][C@@]12CCCO[C@]1([H])[C@@H](OCC(C)C)CN2Cc1scnc1C` | -2.315 | -153.6 | - | - | - |
| `O=C1NCCCCC1SCc1coc(-c2ccc(F)cc2)n1` (stereo not shown) | 4.423 | -76.69 | -9.859 | -2.939 | 4.459 |
| `O=C(c1cnc(Nc2ccccc2)nc1)N1CCCC2(CCNC2)C1` (stereo not shown) | -5.676 | -16.31 | 6.667 | 12.4 | 6.818 |
| `N#Cc1ccc(OCC(O)CN2CCc3cncnc3C2)cc1` (stereo not shown) | -6.753 | 12.86 | 21.43 | -15.71 | 9.222 |
| `Cc1cccc(OC2CN(C(=O)C3CC(=O)N(C4CC4)C3)C2)c1` (stereo not shown) | 3.393 | -30.28 | 11.5 | 7.177 | 8.8 |
| `CC(O)(CN1CCN(CCO)CC1)c1cccc(C(F)(F)F)c1` (stereo not shown) | -38.22 | - | 13.46 | 14.56 | 2.286 |
| `O=C(O)C(F)(F)F.O=C(O)C(F)(F)F.O=C(O)C(F)(F)F.[H][C@@]12CO[C@@H](CN3CCN(C)CC3)[C@]1([H])CCN(CCc1ccccc1)C2` | 33.97 | -8.546 | - | - | - |
| `O=C(Cc1ccccn1)N1CCN2C[C@H](OCCN3CCCC3)C[C@H]2C1` | - | - | 6 | 4.63 | 3.922 |
| `Cc1n[nH]c2c1C(c1ccc(Cl)cc1)SCC(=O)N2` (stereo not shown) | 11.59 | -33.37 | -1.087 | 2.54 | 3.96 |
| `Cc1ccccc1[C@@H]1CN(Cc2nc3ncccn3n2)C[C@H]1C(=O)O` | 16.79 | -14.95 | 11.11 | 9.733 | 2.564 |

The first 4 entries again:

{"compound": "COC(=O)N1CC(C)=C(C)CN1C(=O)Nc1ccc(Cl)c(Cl)c1", "Toxoplasma": -13.3, "T. brucei": -8.145, "LiHisRS": 8.247, "ClpP1P2": -4.689, "TcHisRS": 5.78}
{"compound": "O=S(=O)(NCCCn1cncn1)c1ccc2c(c1)OCCCO2", "Toxoplasma": 1.606, "T. brucei": -38.5, "LiHisRS": 3.333, "ClpP1P2": -1.042, "TcHisRS": 2.609}
{"compound": "CCS(=O)(=O)N1CCC(CSc2ccccc2)C1", "stereo": "stereo not shown", "Toxoplasma": 15.9, "T. brucei": -15.42, "LiHisRS": 0, "ClpP1P2": -3.245, "TcHisRS": 5.195}
{"compound": "CN(Cc1ccco1)C(=O)CN1CCOC(Cn2cccn2)C1", "stereo": "stereo not shown", "Toxoplasma": 13.99, "LiHisRS": 8.547, "ClpP1P2": -12.53, "TcHisRS": 4.274}